Measurements reported in PubChem BioAssay AID1259405 (NCATS, 2018)
Aim: 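Silenced genes that increase secreted GFP made by CHO cells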 (primary screen). Cells: Chinese hamster CHO-K1 ovary cells with stable secreted eGFP expression. Reagent: single siRNA against mouse genes, 0.8 pmol siRNA per well (2 µl of 400 nM stock). Timing: 3 days. Measured: 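Percent of the per-plate non-targeting control median for intracellular GFP per well by laser scanning cytometry and for cell viability by ATP luminescence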. Scale: GFP, % of control: higher = more GFP per well, higher productivity; viability (ATP), % of control: higher = more viable cells (more ATP). Rule for the call: 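Called active when intracellular GFP, relative to negative control, is at or above 120%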.
The whole screen tested about 50,000 reagents; this is a part drawn at random. Over the whole deposit, about 4,000 (8%) were called active. 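Mouse siRNA library applied to hamster cells; one well for each siRNA.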 Reagents against one gene are numbered here.

target gene | reagent no. | GFP, % of control | viability (ATP), % of control | Call
Ftdc2 | 1 | 49.4 | 86.8 | inactive
Ftdc2 | 2 | 59.4 | 84 | inactive
Ftdc2 | 3 | 130 | 85.8 | active
Kri1 | 1 | 19.1 | 1.51 | inactive
Kri1 | 2 | 72.1 | 81.2 | inactive
Kri1 | 3 | 87.1 | 94.2 | inactive
Flcn | 1 | 42.9 | 55.2 | inactive
Flcn | 2 | 41.2 | 51.1 | inactive
Flcn | 3 | 107 | 89.2 | inactive
Bst2 | 1 | 70.1 | 120 | inactive
Bst2 | 2 | 82.3 | 84.6 | inactive
Bst2 | 3 | 163 | 148 | active
Tcf7l2 | 1 | 69.1 | 66.6 | inactive
Tcf7l2 | 2 | 65.7 | 83.5 | inactive
Smpd4 | 1 | 31.2 | 21.1 | inactive
Smpd4 | 2 | 67.9 | 34.7 | inactive
Smpd4 | 3 | 108 | 122 | inactive
Phxr5 | 1 | 118 | 78.3 | inactive
Phxr5 | 2 | 41.9 | 48.4 | inactive
Phxr5 | 3 | 77.9 | 87.5 | inactive
Ccdc93 | 1 | 109 | 73.4 | inactive
Ccdc93 | 2 | 59.7 | 66.6 | inactive
Ccdc93 | 3 | 75.4 | 79.3 | inactive
Zp3r | 1 | 139 | 51.3 | active
Zp3r | 2 | 78.4 | 56.1 | inactive
Zp3r | 3 | 103 | 100 | inactive
Vpreb3 | 1 | 158 | 66.8 | active
Vpreb3 | 2 | 69.1 | 58.4 | inactive
Vpreb3 | 3 | 100 | 77.6 | inactive
Eif4ebp1 | 1 | 89.2 | 99.9 | inactive
Eif4ebp1 | 2 | 94.2 | 88.1 | inactive
Eif4ebp1 | 3 | 92 | 80.7 | inactive
Serpina1f | 1 | 20.3 | 41.7 | inactive
Serpina1f | 2 | 129 | 65.9 | active
Serpina1f | 3 | 112 | 102 | inactive

As entered above.
For “Call”, Phxr5 #1 reads inactive
Eif4ebp1 #1, viability (ATP), % of control → 99.9
Entry for Zp3r #1 in “GFP, % of control”: 139
Value of Tcf7l2 #2 under “GFP, % of control”: 65.7
